Laboratory results as given in the supplement of paper PMC10849652.
The list shows a part of the results.

The chains behind the UniProt entries cited, without tags or fusion partners. Where a name states a change or a piece, a line headed by the entry shows the natural chain unless it says otherwise.
UniProt Q8NB15: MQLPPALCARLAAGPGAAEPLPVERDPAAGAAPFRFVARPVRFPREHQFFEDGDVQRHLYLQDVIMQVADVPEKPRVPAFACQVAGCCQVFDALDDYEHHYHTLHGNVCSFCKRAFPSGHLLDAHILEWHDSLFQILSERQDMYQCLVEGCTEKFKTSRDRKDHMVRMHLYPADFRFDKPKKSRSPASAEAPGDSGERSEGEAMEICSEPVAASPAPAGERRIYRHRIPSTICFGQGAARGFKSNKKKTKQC
UniProt Q96ME7: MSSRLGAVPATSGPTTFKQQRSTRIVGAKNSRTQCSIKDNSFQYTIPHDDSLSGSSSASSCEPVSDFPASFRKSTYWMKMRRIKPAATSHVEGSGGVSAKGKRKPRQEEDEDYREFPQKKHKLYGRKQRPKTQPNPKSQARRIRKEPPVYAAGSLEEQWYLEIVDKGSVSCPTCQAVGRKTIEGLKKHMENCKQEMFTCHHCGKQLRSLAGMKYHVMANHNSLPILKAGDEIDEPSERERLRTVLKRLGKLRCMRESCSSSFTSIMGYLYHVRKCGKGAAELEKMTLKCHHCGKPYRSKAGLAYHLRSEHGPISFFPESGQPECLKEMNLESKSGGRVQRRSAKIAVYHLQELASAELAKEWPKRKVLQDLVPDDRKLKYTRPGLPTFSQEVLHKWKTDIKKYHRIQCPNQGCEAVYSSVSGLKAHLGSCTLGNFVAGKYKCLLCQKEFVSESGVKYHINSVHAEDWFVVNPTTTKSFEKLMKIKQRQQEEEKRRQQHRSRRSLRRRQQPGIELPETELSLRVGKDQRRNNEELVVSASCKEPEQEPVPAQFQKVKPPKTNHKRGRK
UniProt O00488: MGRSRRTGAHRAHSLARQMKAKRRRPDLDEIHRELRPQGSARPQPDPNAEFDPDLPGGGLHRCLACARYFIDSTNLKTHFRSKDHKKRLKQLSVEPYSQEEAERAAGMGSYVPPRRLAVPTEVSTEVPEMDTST
UniProt Q86UK7: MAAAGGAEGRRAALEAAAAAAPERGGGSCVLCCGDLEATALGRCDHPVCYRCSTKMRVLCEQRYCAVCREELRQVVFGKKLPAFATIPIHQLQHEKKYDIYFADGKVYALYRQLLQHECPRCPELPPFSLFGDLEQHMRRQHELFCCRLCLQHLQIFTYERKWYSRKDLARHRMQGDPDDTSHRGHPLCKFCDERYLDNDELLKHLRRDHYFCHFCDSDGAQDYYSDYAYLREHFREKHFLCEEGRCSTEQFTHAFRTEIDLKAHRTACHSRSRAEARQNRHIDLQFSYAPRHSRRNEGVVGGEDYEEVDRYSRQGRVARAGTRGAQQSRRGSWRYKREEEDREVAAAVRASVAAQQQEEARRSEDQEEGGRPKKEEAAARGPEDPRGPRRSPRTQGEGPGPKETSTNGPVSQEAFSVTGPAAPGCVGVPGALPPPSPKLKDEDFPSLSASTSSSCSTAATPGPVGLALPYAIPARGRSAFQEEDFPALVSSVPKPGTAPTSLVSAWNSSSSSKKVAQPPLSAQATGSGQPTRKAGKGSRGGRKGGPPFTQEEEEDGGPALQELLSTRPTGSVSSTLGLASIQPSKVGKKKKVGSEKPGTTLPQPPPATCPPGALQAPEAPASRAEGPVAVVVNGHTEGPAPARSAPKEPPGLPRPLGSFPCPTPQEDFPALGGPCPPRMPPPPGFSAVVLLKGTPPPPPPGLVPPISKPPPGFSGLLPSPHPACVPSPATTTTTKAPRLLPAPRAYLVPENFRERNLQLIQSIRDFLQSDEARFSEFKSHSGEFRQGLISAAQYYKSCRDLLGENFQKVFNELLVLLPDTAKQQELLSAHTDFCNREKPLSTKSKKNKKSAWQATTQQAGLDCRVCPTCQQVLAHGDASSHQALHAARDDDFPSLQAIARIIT
UniProt Q5T7W0: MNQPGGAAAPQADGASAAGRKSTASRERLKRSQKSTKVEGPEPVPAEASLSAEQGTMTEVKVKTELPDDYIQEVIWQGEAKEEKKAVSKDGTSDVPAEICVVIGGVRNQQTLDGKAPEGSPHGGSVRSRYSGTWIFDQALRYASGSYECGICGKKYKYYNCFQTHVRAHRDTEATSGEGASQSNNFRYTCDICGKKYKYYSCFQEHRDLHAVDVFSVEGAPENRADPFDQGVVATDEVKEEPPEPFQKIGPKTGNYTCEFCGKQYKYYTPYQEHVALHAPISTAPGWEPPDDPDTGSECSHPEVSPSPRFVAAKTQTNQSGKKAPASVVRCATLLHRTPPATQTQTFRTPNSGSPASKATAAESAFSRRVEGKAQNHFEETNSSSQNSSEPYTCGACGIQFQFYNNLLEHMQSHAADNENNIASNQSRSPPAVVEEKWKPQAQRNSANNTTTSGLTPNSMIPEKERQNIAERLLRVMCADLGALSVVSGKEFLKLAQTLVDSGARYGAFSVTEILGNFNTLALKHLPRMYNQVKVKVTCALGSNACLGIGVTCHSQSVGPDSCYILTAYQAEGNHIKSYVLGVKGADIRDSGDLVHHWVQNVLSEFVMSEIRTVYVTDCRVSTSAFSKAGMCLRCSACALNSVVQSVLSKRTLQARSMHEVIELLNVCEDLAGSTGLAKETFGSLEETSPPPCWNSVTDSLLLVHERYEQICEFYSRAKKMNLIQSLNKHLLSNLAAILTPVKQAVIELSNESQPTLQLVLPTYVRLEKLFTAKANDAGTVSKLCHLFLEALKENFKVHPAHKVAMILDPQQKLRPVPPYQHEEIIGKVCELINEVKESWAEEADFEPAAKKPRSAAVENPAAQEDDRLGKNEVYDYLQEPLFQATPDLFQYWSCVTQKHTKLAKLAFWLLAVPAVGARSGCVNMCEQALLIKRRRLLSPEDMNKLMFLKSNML
UniProt Q969S3: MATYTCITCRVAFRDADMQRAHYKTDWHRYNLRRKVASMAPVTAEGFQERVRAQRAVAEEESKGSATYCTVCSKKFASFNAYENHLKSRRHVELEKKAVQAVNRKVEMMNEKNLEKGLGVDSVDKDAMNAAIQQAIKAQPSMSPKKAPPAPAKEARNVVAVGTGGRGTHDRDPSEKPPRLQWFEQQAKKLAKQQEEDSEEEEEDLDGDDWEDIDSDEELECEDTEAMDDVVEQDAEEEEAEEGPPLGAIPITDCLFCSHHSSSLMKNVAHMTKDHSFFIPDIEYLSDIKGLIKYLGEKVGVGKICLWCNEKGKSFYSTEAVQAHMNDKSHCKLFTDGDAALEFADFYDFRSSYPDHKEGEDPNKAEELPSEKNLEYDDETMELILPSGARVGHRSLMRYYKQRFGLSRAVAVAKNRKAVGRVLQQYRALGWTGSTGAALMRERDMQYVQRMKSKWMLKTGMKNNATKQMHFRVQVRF
UniProt Q9UEG4: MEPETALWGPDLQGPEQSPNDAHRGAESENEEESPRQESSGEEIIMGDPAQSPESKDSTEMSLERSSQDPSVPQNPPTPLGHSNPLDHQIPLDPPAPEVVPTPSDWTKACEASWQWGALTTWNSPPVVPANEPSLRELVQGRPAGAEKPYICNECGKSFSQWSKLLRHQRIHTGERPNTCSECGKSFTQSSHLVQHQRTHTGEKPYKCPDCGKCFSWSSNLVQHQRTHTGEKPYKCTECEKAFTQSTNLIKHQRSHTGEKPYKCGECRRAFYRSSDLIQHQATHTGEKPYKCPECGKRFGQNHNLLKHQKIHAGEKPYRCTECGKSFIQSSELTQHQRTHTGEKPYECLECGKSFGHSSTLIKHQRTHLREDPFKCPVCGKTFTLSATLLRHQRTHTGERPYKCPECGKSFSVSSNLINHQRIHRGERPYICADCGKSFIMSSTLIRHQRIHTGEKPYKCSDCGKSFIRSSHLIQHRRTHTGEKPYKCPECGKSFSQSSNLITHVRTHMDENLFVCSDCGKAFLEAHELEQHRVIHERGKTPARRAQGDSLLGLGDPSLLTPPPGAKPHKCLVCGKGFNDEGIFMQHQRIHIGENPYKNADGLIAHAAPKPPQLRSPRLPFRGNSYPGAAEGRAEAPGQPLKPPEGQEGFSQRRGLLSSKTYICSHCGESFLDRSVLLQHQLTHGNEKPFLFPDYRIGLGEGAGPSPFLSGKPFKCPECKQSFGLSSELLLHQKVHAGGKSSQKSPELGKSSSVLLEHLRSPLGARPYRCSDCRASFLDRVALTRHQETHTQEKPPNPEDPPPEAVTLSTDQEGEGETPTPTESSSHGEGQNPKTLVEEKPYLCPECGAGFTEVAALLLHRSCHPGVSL
UniProt Q9UK33: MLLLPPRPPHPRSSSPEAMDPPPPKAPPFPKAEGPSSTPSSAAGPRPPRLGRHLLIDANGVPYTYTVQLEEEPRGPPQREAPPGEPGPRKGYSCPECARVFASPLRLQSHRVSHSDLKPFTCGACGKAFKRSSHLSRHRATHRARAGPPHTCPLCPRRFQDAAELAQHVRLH
UniProt Q9UID6: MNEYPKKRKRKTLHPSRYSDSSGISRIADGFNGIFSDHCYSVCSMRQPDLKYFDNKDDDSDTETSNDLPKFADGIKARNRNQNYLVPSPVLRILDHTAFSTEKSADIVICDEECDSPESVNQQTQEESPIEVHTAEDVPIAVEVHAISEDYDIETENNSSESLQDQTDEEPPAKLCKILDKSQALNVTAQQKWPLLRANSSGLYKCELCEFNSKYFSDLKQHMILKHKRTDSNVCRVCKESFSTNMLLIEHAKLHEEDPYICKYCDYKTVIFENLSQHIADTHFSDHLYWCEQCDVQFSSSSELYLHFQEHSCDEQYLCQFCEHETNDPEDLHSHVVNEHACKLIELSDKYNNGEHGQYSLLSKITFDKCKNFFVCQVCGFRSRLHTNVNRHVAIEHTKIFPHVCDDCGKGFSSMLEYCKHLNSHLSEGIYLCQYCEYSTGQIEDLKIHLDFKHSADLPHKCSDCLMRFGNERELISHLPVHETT
UniProt Q9Y4E5: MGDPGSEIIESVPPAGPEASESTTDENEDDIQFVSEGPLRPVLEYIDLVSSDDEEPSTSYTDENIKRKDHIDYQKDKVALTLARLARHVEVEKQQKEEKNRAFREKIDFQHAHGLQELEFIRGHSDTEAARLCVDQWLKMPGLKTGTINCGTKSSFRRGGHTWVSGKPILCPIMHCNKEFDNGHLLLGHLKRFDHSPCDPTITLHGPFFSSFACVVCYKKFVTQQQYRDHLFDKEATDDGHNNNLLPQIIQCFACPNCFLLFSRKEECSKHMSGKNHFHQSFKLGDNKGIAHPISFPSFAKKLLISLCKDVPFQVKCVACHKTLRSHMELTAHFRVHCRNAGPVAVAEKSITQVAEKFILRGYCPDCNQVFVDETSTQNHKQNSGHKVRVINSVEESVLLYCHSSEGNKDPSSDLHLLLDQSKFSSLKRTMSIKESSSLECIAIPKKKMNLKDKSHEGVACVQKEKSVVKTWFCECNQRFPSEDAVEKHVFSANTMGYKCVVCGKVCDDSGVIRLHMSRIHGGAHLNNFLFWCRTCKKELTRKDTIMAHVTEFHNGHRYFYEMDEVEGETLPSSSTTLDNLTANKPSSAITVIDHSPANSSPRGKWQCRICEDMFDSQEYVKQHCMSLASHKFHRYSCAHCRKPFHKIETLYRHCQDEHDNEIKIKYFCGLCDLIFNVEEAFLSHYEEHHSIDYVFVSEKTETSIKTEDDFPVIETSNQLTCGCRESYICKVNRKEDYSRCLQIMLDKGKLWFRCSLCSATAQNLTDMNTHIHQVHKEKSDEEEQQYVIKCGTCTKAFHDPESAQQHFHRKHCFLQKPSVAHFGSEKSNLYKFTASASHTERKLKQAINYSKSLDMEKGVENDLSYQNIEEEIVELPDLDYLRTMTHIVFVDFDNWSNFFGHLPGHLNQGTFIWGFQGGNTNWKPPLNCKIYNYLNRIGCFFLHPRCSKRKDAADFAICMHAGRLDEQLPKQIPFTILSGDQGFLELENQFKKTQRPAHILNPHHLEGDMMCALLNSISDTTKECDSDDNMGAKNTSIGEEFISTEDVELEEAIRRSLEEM
UniProt Q9P0T4: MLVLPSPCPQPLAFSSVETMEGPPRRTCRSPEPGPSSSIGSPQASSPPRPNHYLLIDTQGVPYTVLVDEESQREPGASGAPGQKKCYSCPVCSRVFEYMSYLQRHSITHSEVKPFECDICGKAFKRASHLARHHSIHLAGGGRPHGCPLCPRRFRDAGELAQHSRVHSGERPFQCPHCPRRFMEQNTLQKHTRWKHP
UniProt Q9H609: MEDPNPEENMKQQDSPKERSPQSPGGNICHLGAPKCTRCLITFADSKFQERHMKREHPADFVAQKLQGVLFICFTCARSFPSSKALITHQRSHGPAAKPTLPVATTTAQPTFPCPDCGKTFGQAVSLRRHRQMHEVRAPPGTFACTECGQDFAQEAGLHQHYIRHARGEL

What was measured:
Test in all cases: log2 fold change, soluble protein after heating vs DMSO (PISA); higher = thermal stabilisation; K562 cells, 10 uM, 30 min; active = over 0.2 and 3.5 SD of the protein, either way, in both replicates (recomputed)
[1] = target: ZNF428 (UniProt M0QXZ5)
Outline: (§1)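 K562 cells at 2×10^6 cells/mL were exposed to 10 μM compound for 30 min, then aliquots were heated for 3 min across 48°C-58°C, pooled, and extracted in PBS containing 0.5% NP-40 at 4°C. The supernatant after 21,000xg for 90 min was taken as soluble protein and measured by TMTpro 16plex LC-MS/MS with channel sums equalised. Thermal stability is reported relative to control samples, with values from duplicates. Fold changes are given on a log2 scale.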

[2] = target: ZNF511 isoform 1 (UniProt Q8NB15)
Outline: as §1

[3] = target: ZNF512 (UniProt Q96ME7)
Outline: as §1

[4] = target: ZNF579 (UniProt Q8NAF0)
Outline: as §1

[5] = target: ZNF593 (UniProt O00488)
Outline: as §1

[6] = target: ZNF598 (UniProt Q86UK7)
Outline: as §1

[7] = target: ZNF609 (UniProt O15014)
Outline: as §1

[8] = target: ZNF618 (UniProt B1ALC2)
Outline: as §1

[9] = target: ZNF618 (UniProt Q5T7W0)
Outline: as §1

[10] = target: ZNF622 (UniProt Q969S3)
Outline: as §1

[11] = target: ZNF629 (UniProt Q9UEG4)
Outline: as §1

[12] = target: ZNF580 (UniProt Q9UK33)
Outline: as §1

[13] = target: ZNF618 isoform 2 (UniProt Q5T7W0)
Outline: as §1

[14] = target: ZNF638 (UniProt Q14966)
Outline: as §1

[15] = target: ZNF639 (UniProt Q9UID6)
Outline: as §1

[16] = target: ZNF451 (UniProt Q9Y4E5)
Outline: as §1

[17] = target: ZNF512B (UniProt Q96KM6)
Outline: as §1

[18] = target: ZNF581 (UniProt Q9P0T4)
Outline: as §1

[19] = target: ZNF576 (UniProt Q9H609)
Outline: as §1

SMILES	log2 fold change [1]	log2 fold change [2]	log2 fold change [3]	log2 fold change [4]	log2 fold change [5]	log2 fold change [6]	log2 fold change [7]	log2 fold change [8]	log2 fold change [9]	log2 fold change [10]	log2 fold change [11]	log2 fold change [12]	log2 fold change [13]	log2 fold change [14]	log2 fold change [15]	log2 fold change [16]	log2 fold change [17]	log2 fold change [18]	log2 fold change [19]
CC[C@H](C)n1cc(C)c2c(C(=O)NCc3c(C)cc(C)[nH]c3=O)cc(-c3ccc(N4CCNCC4)nc3)cc21	inactive: -0.03	inactive: -0.058	inactive: -0.002	inactive: 0.167	inactive: -0.003	inactive: 0.068	inactive: 0.076	inactive: 0.02	inactive: -0.033	inactive: -0.012	inactive: -0.293	–	–	–	–	–	–	–	–
O=C(Nc1cccc(Nc2ncc(Br)c(NCCc3cnc[nH]3)n2)c1)N1CCCC1	inactive: -0.025	inactive: 0.072	–	active: -0.377	inactive: 0.13	inactive: -0.07	inactive: -0.035	–	inactive: -0.019	inactive: 0.022	inactive: -0.057	inactive: 0.062	inactive: -0.046	inactive: 0.049	inactive: -0.19	–	–	–	–
CC(C)(O)CC(=O)NCCn1ccc2ncnc(Nc3ccc(Oc4cccc(C(F)(F)F)c4)c(Cl)c3)c21	inactive: -0.048	inactive: 0.1	inactive: -0.018	inactive: -0.018	inactive: 0.132	inactive: -0.093	inactive: 0.101	–	inactive: -0.181	inactive: -0.078	inactive: 0.054	–	inactive: -0.018	inactive: -0.045	–	inactive: -0.058	inactive: 0.024	–	–
Cc1cc(Nc2cc(N3CCN(C)CC3)nc(Sc3ccc(NC(=O)C4CC4)cc3)n2)n[nH]1 [tozasertib]	inactive: -0.018	–	–	–	inactive: 0.055	inactive: -0.036	–	–	inactive: -0.049	–	inactive: 0.02	–	inactive: 0.006	inactive: -0.027	inactive: 0	–	–	–	–
CNc1nc(-c2ccc3c(N)n[nH]c3c2)cc(N2C[C@@H](C(=O)NC3CCCCC3)CC[C@H]2C)n1	inactive: 0	–	–	inactive: 0.089	inactive: 0.116	inactive: 0.072	inactive: -0.004	–	inactive: 0.003	inactive: -0.019	inactive: 0.043	inactive: 0.128	inactive: 0.03	inactive: -0.078	–	–	–	inactive: 0.032	–
CCN(CC)Cc1ccc2cc(COC(=O)Nc3ccc(C(=O)NO)cc3)ccc2c1 [givinostat]	inactive: -0.029	–	inactive: 0.112	inactive: 0.042	inactive: 0.021	inactive: 0.036	inactive: 0.063	–	inactive: 0.004	inactive: -0.004	inactive: 0.051	–	inactive: 0.066	inactive: 0.099	–	–	inactive: 0.131	–	inactive: 0.026
Cc1cccc(CC(=O)N2CCc3c2ccc(-c2cn(C)c4ncnc(N)c24)c3F)n1	inactive: -0.026	–	–	inactive: -0.101	inactive: -0.055	inactive: 0.091	inactive: -0.22	inactive: -0.068	inactive: -0.034	inactive: -0.019	inactive: -0.026	inactive: -0.045	–	inactive: -0.002	inactive: -0.001	–	–	–	–
CS(=O)(=O)N1CCN(Cc2cc3nc(-c4cccc5[nH]ncc45)nc(N4CCOCC4)c3s2)CC1 [pictilisib]	inactive: 0.036	–	–	inactive: 0.02	inactive: -0.14	inactive: -0.042	inactive: 0.107	inactive: -0.048	inactive: 0.069	inactive: 0.144	inactive: 0.226	inactive: -0.037	–	inactive: -0.066	inactive: 0.058	–	–	–	–
NC(=O)c1ccc2nc(-c3ccc(Oc4ccc(Cl)cc4)cc3)[nH]c2c1	inactive: -0.019	–	inactive: -0.014	inactive: 0.042	inactive: 0.016	inactive: -0.012	inactive: 0.029	–	inactive: 0.018	inactive: 0.007	inactive: -0.092	–	inactive: -0.077	inactive: 0.006	–	–	inactive: -0.187	–	inactive: 0.018
CCn1cc(-c2ccnc3[nH]c(-c4cccc(CN(C)C)c4)cc23)c(-c2ccc(NC(=O)N(C)C)cc2)n1	inactive: -0.007	–	–	inactive: 0.091	inactive: 0.153	inactive: -0.033	inactive: 0.097	inactive: -0.094	inactive: 0.068	inactive: -0.077	inactive: -0.004	inactive: 0.092	–	inactive: 0.102	inactive: -0.149	–	–	–	–
CCN(CCCOc1ccc2c(Nc3cc(CC(=O)Nc4cccc(F)c4)[nH]n3)ncnc2c1)CCOP(=O)(O)O [barasertib]	inactive: 0.011	inactive: -0.041	–	inactive: 0.037	inactive: -0.122	inactive: 0.039	inactive: 0.039	inactive: 0	inactive: 0.046	inactive: -0.001	inactive: -0.203	–	inactive: -0.059	inactive: -0.063	–	–	–	–	–
CNC(=O)c1ccccc1Nc1nc(Nc2ccc(N3CCOCC3)cc2OC)ncc1Cl	inactive: -0.002	–	inactive: 0.151	inactive: -0.019	inactive: 0.127	inactive: -0.006	inactive: -0.057	–	inactive: -0.046	inactive: 0.045	inactive: 0.023	–	inactive: 0.276	inactive: -0.095	–	–	inactive: -0.061	–	inactive: -0.487
COc1ccc(Cn2ccc3ccc(C(=O)NO)cc32)cc1	inactive: -0.014	–	–	inactive: 0.056	inactive: -0.186	inactive: 0.076	inactive: -0.034	inactive: 0.002	inactive: -0.002	inactive: -0.033	inactive: -0.06	inactive: -0.134	–	inactive: 0.018	inactive: -0.155	–	inactive: -0.07	–	–
CC1=C(C(=O)Nc2cc3cn[nH]c3cc2F)C(c2ccc(C(F)(F)F)cc2)CC(=O)N1 (configuration not stated)	inactive: 0.014	–	–	–	inactive: 0.053	inactive: 0.006	–	inactive: -0.083	inactive: 0.026	–	inactive: 0.04	–	–	–	–	–	–	–	–
Cc1nc(Nc2ncc(C(=O)Nc3c(C)cccc3Cl)s2)cc(N2CCN(CCO)CC2)n1 [dasatinib]	inactive: 0.009	–	–	inactive: -0.148	inactive: 0.105	inactive: -0.178	inactive: 0	–	inactive: 0.031	inactive: 0.012	inactive: 0.071	inactive: -0.085	inactive: -0.258	inactive: 0.245	–	–	–	inactive: 0.178	–
C[C@@H](Oc1cc(-c2cnn(C3CCNCC3)c2)cnc1N)c1c(Cl)ccc(F)c1Cl [crizotinib]	inactive: 0.044	–	–	inactive: 0.112	inactive: 0.067	inactive: -0.133	inactive: -0.113	inactive: 0.042	inactive: -0.02	inactive: -0.029	inactive: -0.004	inactive: 0.164	–	inactive: -0.048	inactive: 0.219	–	inactive: -0.006	–	–
O=C(Nc1nc2ccccc2n1CCN1CCOCC1)c1cccc([N+](=O)[O-])c1 [IRAK-1-4 Inhibitor I]	inactive: 0.081	–	–	inactive: -0.096	inactive: -0.151	inactive: -0.038	inactive: -0.031	inactive: -0.029	inactive: 0.023	inactive: 0.004	inactive: -0.026	inactive: 0.051	–	inactive: -0.036	inactive: -0.224	–	inactive: -0.243	–	–

Single records (already shown). Values in the order: log2 fold change [1]	log2 fold change [2]	log2 fold change [3]	log2 fold change [4]	log2 fold change [5]	log2 fold change [6]	log2 fold change [7]	log2 fold change [8]	log2 fold change [9]	log2 fold change [10]	log2 fold change [11]	log2 fold change [12]	log2 fold change [13]	log2 fold change [14]	log2 fold change [15]	log2 fold change [16]	log2 fold change [17]	log2 fold change [18]	log2 fold change [19]
CCN(CCCOc1ccc2c(Nc3cc(CC(=O)Nc4cccc(F)c4)[nH]n3)ncnc2c1)CCOP(=O)(O)O [barasertib] as listed: inactive: 0.011	inactive: -0.041	–	inactive: 0.037	inactive: -0.122	inactive: 0.039	inactive: 0.039	inactive: 0	inactive: 0.046	inactive: -0.001	inactive: -0.203	–	inactive: -0.059	inactive: -0.063	–	–	–	–	–
Cc1cc(Nc2cc(N3CCN(C)CC3)nc(Sc3ccc(NC(=O)C4CC4)cc3)n2)n[nH]1 [tozasertib] as listed: inactive: -0.018	–	–	–	inactive: 0.055	inactive: -0.036	–	–	inactive: -0.049	–	inactive: 0.02	–	inactive: 0.006	inactive: -0.027	inactive: 0	–	–	–	–
